Experimental data as given in PMC8546600, “Chaperone Spy Protects Outer Membrane Proteins from Folding Stress via Dynamic Complex Formation” (mBio, 2021).

B1: periplasmic chaperone Spy (natural protein, Escherichia coli, UniProt P77754 24-161, looked up)
chain: ADTTTAAPADAKPMMHHKGKFGPHQDMMFKDLNLTDAQKQQIREIMKGQRDQMKRPPLEERRAMHDIIASDTFDKVKAEAQIAKMEEQRKANMLAHMETQNKIYNILTPEQKKQFNANFEKRLTERPAAKGKMPATAE
notes: Spy, periplasmic chaperone of Escherichia coli; [U-2H,15N]-labelled in the HSQC experiment with unlabelled OmpX, unlabelled elsewhere; also called wild-type Spy; WT Spy; source: E. coli, from pET28b(+)-HisSUMO-spy, purified (6xHis-SUMO tag removed, cation exchange)
B2: Spy^Q100L (natural protein, Escherichia coli, UniProt P77754 24-161, looked up)
chain: B1 chain with Q100L
notes: Spy of Escherichia coli with Q100L; also called Q100L variant; source: E. coli, from pET28b(+)-HisSUMO-spy-Q100L, purified
B3: seventeen-kilodalton protein (Skp) (natural protein, Escherichia coli, UniProt P0AEU7 21-161, looked up)
chain: ADKIAIVNMGSLFQQVAQKTGVSNTLENEFKGRASELQRMETDLQAKMKKLQSMKAGSDRTKLEKDVMAQRQTFAQKAQAFEQDRARRSNEERGKLVTRIQTAVKSVANSQDIDLVVDANAVAYNSSDVKDITADVLKQVK
notes: Skp, periplasmic chaperone of Escherichia coli; source: E. coli, from pET28b(+)-HisSUMO-skp, purified (6xHis-SUMO tag removed, cation exchange)

Target: transmembrane domain of OmpA (tOmpA) (Escherichia coli)
Assay: NMR spectroscopy of assembled chaperone-OMP complexes; excess urea-denatured OMP added dropwise to the chaperone, supernatant concentrated; 2D [15N,1H]-TROSY or HSQC with one partner [U-2H,15N]-labelled; 25 mM MES, 50 mM NaCl, pH 6.5; 315 K (tOmpA-Spy also at 42, 26 and 15 C); both purified

| Binder | binding |
| --- | --- |
| B1 | binds |
| B2 | binds |
| B3 | binds |

Residue numbers refer to the chain shown, from its start. Numbers in names are those of the source. Results are given in words; binding and its absence hold for the method and conditions named. Binding calls can cover weak binding; strength is not graded here.
